# Test system: ApoE knockout mice
# Assay: Serum lipids in hyperlipidemia ApoE knockout mice on high fat diet
# Format: in vivo
# Settings: positive control 3 mg/kg/day intragastric, 4 weeks, vs model group
# Method: Fifteen C57BL/6J mice (male, 6-8 weeks) and seventy-five ApoE knockout mice (male, 6-8 weeks) were used for experiments. C57BL/6J mice were fed with normal diet, and ApoE knockout mice were fed for 1 week with a diet of normal/high fat diet ratio of 1/1.
# Mice were weighed before administered drugs every week, where the dosage of the drug for mice is calculate according to the weight; and housed under 24±1° C. room temperature and 55±5% air humidity condition, and allowed enough food and water ad libitum. After the drug administration continuously for 4 weeks, the mice were anesthetized with pentobarbital sodium according to body weight. Blood (0.5 ml per mouse) was drawn from the inner canthus vein for hematology analysis. Hematology analysis: blood samples were let for standing for 2 h and centrifuged (3000 rpm, 10 min, 4° C.) to obtain serum. The total cholesterol (TC), triacylglycerol (TG) and low-density cholesterol (LDL-C) levels in the serum samples were assessed using automatic biochemical analyzer. Statistical analysis: GraphPad Prism 5 software was used to analyze and draw figure. Results were expressed as the mean±standard (mean±SD), and statistical analysis was performed by one-way analysis of variance (ANOVA) or student's t test. A difference with P<0.05 was considered statistically significant. […]
smiles,measurement,value
"CC(C)c1c(C(=O)Nc2ccccc2)c(-c2ccccc2)c(-c2ccc(F)cc2)n1CC[C@@H](O)C[C@@H](O)CC(=O)O [Atorvastatin, reference compound]",serum low-density cholesterol (LDL-C),reduced
